Measured values as given in patent US9650417B2, “Treatments for gastrointestinal disorders” (Ironwood Pharmaceuticals, Inc., priority 2011, dated 2017).
Part of at least one peptide drawing is inferred or uncertain, most often the ends. Bridge positions count the residues as written; N and C are the ends. Square brackets hold non-standard residues; d marks the D form. Peptide text beside a SMILES is read from it. pS = N[C@@H](COP(=O)(O)O)C(=O)O

Experiments:
male Wistar rats [1] = test: TNBS-induced (post-inflammatory) colorectal hypersensitivity to distension, male Wistar rats; format: in vivo, rat
[2] = tested on: ligated rat duodenal loops; test: Fluid secretion in ligated rat duodenal loops; format: in vivo
female Wistar rats [3] = test: Stress-induced (partial restraint stress) colorectal hypersensitivity to distension, female Wistar rats; format: in vivo, rat
female Wistar rats [4] = test: Abdominal response to colorectal distension under basal conditions, female Wistar rats; format: in vivo, rat; settings: Example 9, basal; for colorectal sensitivity to distension vs vehicle: all distension pressures
male Wistar rats [5] = test: Abdominal response to colorectal distension under basal conditions, male Wistar rats; format: in vivo, rat

CC(C)C[C@@H]1NC(=O)[C@H](COP(=O)(O)O)NC(=O)[C@@H]2CSSC[C@@H]3NC(=O)[C@H](C)NC(=O)[C@@H]4CCCN4C(=O)[C@H](CC(N)=O)NC(=O)[C@H](CSSC[C@H](N)C(=O)N2)NC(=O)[C@H](CSSC[C@@H](C(=O)O)NC(=O)CNC(=O)[C@H]([C@@H](C)O)NC3=O)NC1=O [Peptide 2, CCpSLCCNPACTGC] (H-CC[pS]LCCNPACTGC-OH; disulfide 1-6, 2-10, 5-13 (inferred); N-terminus and C-terminus assumed)
colonic volumes after TNBS vs vehicle (male Wistar rats [1]; Example 7, 0.03 μg/kg oral, 15 mmHg p<0.01, 30, 45, 60 mmHg p<0.001): significantly decreased | TNBS-induced colorectal hypersensitivity vs vehicle (male Wistar rats [1]; Example 7, 0.03 μg/kg oral, all distension pressures (15, 30, 45, 60 mmHg)): no significant effect | colonic volumes after TNBS vs vehicle (male Wistar rats [1]; Example 7, 0.3 μg/kg oral): no effect | TNBS-induced colorectal hypersensitivity vs vehicle (male Wistar rats [1]; Example 7, 0.3 μg/kg oral, 15 mmHg p<0.001, 30 mmHg p<0.01, 45 mmHg p<0.05, 60 mmHg p<0.01): significantly decreased | colonic volumes after TNBS vs vehicle (male Wistar rats [1]; Example 7, 10 μg/kg oral): no effect | TNBS-induced colorectal hypersensitivity vs vehicle (male Wistar rats [1]; Example 7, 10 μg/kg oral, at 15 mmHg (p<0.01)): significantly decreased | colorectal volumes after TNBS (male Wistar rats [1]; Example 8, 3 μg/kg oral): no effect | number of abdominal contractions after TNBS vs vehicle (male Wistar rats [1]; Example 8, 3 μg/kg oral, 15 mmHg p<0.001, 30 mmHg p<0.001): significantly decreased | colorectal volumes after TNBS (male Wistar rats [1]; Example 8, 10 μg/kg oral): no effect | number of abdominal contractions after TNBS vs vehicle (male Wistar rats [1]; Example 8, 10 μg/kg oral, 15 mmHg p<0.01, 60 mmHg p<0.01): significantly decreased | colorectal volumes after TNBS (male Wistar rats [1]; Example 8, 30 μg/kg oral): no effect | number of abdominal contractions after TNBS vs vehicle (male Wistar rats [1]; Example 8, 30 μg/kg oral, 15 mmHg p<0.001, 30 mmHg p<0.001, 60 mmHg p<0.01): significantly decreased | potency in induction of fluid accumulation (FIG. 2) [2]: potency similar to that of Peptide 4 | stress-induced increase in colorectal volumes vs vehicle (female Wistar rats [3]; Example 9, 3 μg/kg oral): no effect | stress-induced increase in colorectal volumes vs vehicle (female Wistar rats [3]; Example 9, 10 μg/kg oral): no effect | stress-induced increase in colorectal volumes vs vehicle (female Wistar rats [3]; Example 9, 30 μg/kg oral): no effect | stress-induced abdominal response vs vehicle (female Wistar rats [3]; Example 9, after 2-hour partial restraint stress, 3 μg/kg oral): no effect | number of abdominal contractions after stress vs vehicle (female Wistar rats [3]; Example 9, after 2-hour partial restraint stress, 10 μg/kg oral, at 60 mmHg (p<0.05)): significantly decreased | number of abdominal contractions after stress vs vehicle (female Wistar rats [3]; Example 9, after 2-hour partial restraint stress, 30 μg/kg oral, 15 mmHg p<0.05, 30 mmHg p<0.01, 45 mmHg p<0.001, 60 mmHg p<0.05): significantly decreased | colonic volumes vs vehicle (female Wistar rats [4]; 3 μg/kg oral): no effect | colorectal sensitivity to distension vs vehicle (female Wistar rats [4]; 3 μg/kg oral): no effect | colonic volumes vs vehicle (female Wistar rats [4]; 10 μg/kg oral): no effect | colorectal sensitivity to distension vs vehicle (female Wistar rats [4]; 10 μg/kg oral): no effect | colonic volumes vs vehicle (female Wistar rats [4]; 30 μg/kg oral): no effect | colorectal sensitivity to distension vs vehicle (female Wistar rats [4]; 30 μg/kg oral): no effect | colonic volumes vs vehicle (male Wistar rats [5]; Example 7, basal, 0.03 μg/kg oral): no effect | number of abdominal contractions vs vehicle (male Wistar rats [5]; Example 7, basal, 0.03 μg/kg oral, 15-60 mmHg): no effect | colonic volumes vs vehicle (male Wistar rats [5]; Example 7, basal, 0.3 μg/kg oral): no effect | number of abdominal contractions vs vehicle (male Wistar rats [5]; Example 7, basal, 0.3 μg/kg oral, 15-60 mmHg): no effect | number of abdominal contractions vs vehicle (male Wistar rats [5]; Example 7, basal, 10 μg/kg oral, 15-60 mmHg): no effect | colonic volumes vs vehicle (male Wistar rats [5]; Example 8, basal, 3 μg/kg oral (except p<0.05 at 30 mmHg)): no effect | number of abdominal contractions vs vehicle (male Wistar rats [5]; Example 8, basal, 3 μg/kg oral, all distension pressures): no effect | colonic volumes vs vehicle (male Wistar rats [5]; Example 8, basal, 10 μg/kg oral): no effect | number of abdominal contractions vs vehicle (male Wistar rats [5]; Example 8, basal, 10 μg/kg oral, all distension pressures): no effect | colorectal volumes vs vehicle (male Wistar rats [5]; Example 8, basal, 30 μg/kg oral): no effect | number of abdominal contractions vs vehicle (male Wistar rats [5]; Example 8, basal, 30 μg/kg oral, at 45 mmHg (p<0.01) and 60 mmHg (p<0.05)): significantly decreased
